Some of the results follow.
How the values were obtained:
Experiment in all cases: log2 fold change, soluble protein after heating vs DMSO (PISA); higher = thermal stabilisation; K562 lysate, 10 uM; active = over 0.2 and 3.5 SD of the protein, either way, in both replicates (recomputed)
[1] = compound: CCCS(=O)(=O)Nc1ccc(F)c(C(=O)c2c[nH]c3ncc(-c4ccc(Cl)cc4)cc23)c1F [vemurafenib]
Summary of the method: (§1)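 Pellets of K562 cells were dounce-homogenised in PBS pH 7.4 with 1 mM MgCl2, and the crude extract was held at 1 mg/mL protein for a 30 min treatment with 10 μM compound. Aliquots were heated for 3 min over 48°C-58°C and pooled before NP-40 was added to 0.5% at 4°C. The supernatant from 21,000xg for 90 min was quantified by TMTpro 16plex LC-MS/MS with channel sums equalised. Values are reported from duplicates as log-two fold change in thermal stability relative to solvent controls.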

Sequences of proteins named here, by UniProt entry; tags and fusion partners are left off. A change or cut given only in a name is not applied to a line headed by its entry.
UniProt Q8TBM8: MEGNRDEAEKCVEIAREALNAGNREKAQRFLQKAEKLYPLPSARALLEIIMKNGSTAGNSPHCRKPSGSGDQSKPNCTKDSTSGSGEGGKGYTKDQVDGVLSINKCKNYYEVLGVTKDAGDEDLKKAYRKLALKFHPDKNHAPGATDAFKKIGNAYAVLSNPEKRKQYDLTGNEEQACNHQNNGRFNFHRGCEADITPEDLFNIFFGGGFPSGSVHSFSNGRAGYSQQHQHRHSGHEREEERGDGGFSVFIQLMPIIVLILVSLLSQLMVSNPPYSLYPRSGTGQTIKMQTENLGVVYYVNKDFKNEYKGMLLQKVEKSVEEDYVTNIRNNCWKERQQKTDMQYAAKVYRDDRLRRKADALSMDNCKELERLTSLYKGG
UniProt O60231: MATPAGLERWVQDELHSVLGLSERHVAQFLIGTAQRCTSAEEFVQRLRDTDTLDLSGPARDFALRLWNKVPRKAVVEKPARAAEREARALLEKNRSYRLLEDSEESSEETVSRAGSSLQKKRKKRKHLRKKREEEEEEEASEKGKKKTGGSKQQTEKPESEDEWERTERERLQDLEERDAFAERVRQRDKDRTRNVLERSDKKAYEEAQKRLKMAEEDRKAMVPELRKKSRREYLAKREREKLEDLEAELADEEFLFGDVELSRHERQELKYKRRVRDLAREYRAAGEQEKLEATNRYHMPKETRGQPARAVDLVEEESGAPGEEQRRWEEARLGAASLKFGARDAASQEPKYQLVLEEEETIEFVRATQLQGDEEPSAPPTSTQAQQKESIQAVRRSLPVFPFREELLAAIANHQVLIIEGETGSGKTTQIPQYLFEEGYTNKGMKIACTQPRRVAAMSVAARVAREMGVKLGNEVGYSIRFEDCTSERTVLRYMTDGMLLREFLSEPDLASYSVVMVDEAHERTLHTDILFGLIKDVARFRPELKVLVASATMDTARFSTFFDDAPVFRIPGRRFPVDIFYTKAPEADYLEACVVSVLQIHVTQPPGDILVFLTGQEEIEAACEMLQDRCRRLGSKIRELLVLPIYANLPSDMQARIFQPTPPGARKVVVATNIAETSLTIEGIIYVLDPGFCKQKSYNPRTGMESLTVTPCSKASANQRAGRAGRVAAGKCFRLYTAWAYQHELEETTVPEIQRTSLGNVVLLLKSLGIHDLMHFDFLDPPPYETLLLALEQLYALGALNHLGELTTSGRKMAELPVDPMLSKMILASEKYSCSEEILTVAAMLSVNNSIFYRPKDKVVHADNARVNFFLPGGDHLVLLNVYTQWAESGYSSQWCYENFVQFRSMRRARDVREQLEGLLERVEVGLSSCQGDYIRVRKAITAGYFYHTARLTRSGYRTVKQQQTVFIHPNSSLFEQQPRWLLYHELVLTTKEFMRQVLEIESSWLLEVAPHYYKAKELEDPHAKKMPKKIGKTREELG
UniProt P23743: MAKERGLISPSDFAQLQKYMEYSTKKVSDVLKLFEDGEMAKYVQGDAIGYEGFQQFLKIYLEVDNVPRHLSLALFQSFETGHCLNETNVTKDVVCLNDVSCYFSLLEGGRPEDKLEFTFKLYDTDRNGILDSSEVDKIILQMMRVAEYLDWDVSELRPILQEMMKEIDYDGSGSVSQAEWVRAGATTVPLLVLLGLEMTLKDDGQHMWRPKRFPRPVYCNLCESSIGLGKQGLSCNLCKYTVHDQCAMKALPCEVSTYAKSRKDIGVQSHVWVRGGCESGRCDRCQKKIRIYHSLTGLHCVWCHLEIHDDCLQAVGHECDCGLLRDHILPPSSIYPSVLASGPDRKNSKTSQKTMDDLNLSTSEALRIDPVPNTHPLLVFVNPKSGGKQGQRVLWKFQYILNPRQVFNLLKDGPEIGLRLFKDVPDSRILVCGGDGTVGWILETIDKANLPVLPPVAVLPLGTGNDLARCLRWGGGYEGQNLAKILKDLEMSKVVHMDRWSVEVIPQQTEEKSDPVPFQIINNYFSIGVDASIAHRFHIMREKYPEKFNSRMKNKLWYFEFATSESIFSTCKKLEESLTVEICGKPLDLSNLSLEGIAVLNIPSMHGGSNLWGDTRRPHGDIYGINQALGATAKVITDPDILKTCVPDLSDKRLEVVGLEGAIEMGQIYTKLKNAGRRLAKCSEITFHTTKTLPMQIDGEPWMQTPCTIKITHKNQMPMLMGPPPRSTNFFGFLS
UniProt Q9UBM7: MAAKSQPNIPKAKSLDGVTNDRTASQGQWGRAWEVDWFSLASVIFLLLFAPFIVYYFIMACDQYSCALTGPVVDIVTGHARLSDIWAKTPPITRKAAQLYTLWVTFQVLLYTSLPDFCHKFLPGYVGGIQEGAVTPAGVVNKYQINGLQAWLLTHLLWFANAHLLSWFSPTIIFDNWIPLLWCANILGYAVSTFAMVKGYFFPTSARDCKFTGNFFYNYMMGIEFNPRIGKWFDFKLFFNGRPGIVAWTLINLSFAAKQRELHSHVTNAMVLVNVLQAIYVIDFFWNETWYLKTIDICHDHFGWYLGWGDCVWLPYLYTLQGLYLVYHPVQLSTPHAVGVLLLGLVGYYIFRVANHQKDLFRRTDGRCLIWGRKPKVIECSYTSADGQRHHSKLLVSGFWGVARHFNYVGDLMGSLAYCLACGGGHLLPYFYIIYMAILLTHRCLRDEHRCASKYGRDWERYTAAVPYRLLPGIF
UniProt Q9H2U1: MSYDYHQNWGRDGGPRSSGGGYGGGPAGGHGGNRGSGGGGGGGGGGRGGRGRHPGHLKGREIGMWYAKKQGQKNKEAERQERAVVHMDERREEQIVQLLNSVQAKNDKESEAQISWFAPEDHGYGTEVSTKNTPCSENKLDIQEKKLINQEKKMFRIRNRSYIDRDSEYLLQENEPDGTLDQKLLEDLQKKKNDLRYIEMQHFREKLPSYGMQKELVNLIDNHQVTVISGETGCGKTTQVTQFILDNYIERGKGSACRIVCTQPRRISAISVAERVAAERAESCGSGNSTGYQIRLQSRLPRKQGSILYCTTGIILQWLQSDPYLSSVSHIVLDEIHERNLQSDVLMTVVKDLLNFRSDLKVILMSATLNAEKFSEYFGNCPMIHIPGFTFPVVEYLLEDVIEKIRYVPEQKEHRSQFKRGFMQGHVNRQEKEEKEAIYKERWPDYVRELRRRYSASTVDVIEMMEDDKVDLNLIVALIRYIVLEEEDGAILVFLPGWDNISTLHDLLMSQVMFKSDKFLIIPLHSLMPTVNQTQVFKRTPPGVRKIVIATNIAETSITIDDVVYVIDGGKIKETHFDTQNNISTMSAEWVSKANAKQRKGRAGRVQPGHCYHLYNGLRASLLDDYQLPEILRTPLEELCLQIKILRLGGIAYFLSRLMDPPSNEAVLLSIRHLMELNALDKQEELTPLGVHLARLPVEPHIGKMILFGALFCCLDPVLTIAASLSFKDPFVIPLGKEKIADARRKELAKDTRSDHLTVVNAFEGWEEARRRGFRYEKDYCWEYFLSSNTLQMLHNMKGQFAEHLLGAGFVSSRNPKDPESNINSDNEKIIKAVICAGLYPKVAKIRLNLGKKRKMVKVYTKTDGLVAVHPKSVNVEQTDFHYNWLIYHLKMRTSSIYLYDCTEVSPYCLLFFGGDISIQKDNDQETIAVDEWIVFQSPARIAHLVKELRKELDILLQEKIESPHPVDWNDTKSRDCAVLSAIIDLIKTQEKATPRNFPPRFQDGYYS
UniProt Q99766: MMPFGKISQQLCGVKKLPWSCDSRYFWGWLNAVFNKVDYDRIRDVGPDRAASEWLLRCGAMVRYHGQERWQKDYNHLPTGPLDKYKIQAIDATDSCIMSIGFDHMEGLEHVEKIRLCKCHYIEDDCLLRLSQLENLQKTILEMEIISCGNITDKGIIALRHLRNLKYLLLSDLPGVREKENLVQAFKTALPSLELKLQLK
UniProt Q08495: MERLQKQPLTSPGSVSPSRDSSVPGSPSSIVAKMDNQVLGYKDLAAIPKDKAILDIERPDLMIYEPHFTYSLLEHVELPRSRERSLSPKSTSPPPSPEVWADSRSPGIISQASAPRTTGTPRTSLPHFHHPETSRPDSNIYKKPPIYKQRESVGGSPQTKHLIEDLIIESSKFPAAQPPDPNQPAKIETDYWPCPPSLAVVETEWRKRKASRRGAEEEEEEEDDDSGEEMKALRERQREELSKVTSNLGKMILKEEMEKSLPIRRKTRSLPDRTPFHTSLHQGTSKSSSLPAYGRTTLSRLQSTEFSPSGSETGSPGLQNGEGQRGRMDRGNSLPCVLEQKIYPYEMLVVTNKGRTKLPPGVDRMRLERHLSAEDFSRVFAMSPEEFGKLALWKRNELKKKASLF
UniProt Q9UKB3: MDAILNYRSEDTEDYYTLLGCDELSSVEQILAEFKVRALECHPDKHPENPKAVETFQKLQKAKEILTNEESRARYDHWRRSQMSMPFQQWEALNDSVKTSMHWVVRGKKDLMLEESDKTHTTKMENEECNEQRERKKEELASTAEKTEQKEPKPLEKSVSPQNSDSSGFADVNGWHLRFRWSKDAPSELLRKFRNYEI
UniProt Q8NF50: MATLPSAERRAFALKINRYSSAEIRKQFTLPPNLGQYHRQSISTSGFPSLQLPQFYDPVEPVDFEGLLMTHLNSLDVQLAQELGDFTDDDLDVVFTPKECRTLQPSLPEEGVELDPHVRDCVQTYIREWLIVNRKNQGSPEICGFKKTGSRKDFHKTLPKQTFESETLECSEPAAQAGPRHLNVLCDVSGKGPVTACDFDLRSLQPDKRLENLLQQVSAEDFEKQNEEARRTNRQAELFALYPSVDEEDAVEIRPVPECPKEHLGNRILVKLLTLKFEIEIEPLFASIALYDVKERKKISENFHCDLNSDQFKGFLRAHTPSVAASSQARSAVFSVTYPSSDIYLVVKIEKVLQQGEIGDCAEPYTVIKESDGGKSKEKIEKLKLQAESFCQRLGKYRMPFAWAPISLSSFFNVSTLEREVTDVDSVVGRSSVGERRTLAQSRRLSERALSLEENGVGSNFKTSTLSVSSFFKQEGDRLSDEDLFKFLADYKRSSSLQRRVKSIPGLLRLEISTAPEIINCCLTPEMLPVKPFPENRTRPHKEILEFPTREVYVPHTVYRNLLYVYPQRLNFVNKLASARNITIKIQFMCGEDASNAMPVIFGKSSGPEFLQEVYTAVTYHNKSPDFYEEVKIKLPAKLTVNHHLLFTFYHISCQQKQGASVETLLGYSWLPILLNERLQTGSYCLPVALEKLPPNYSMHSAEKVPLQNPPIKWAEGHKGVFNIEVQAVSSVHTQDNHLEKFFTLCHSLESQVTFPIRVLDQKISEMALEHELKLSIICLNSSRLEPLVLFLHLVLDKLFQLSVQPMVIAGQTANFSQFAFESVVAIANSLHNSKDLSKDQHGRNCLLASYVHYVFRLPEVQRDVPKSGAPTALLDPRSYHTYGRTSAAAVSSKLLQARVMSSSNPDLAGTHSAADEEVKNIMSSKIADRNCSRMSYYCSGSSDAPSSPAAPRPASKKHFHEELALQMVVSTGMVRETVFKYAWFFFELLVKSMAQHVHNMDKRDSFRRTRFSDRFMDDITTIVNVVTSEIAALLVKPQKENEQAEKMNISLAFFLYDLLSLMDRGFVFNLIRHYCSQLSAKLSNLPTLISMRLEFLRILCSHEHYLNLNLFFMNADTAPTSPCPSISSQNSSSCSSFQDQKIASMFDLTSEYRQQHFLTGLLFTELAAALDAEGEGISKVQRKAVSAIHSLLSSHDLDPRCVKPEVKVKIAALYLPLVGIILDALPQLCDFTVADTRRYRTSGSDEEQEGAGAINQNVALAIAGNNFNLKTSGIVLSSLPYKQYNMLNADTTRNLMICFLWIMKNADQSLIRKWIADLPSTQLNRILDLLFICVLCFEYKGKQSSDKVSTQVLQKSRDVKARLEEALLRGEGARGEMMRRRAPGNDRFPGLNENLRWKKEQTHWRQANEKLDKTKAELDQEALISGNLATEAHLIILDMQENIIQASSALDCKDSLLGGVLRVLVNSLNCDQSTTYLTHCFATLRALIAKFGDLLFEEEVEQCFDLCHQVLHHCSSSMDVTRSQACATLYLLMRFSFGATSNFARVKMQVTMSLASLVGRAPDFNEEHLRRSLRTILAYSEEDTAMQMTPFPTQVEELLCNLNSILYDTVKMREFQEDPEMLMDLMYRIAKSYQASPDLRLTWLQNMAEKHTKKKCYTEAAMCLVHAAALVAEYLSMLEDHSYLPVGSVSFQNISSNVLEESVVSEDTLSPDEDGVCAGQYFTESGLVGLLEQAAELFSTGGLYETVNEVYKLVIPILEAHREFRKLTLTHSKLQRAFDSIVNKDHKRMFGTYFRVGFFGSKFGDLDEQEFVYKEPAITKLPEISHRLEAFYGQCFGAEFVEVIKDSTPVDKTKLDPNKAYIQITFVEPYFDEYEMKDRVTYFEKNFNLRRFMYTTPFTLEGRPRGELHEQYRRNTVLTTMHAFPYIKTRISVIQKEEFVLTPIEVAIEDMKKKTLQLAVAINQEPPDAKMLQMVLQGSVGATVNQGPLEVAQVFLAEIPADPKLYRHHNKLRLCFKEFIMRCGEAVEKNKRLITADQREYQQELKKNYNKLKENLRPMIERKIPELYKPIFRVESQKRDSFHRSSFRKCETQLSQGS

[2] = compound: CCCS(=O)(=O)Nc1ccc(F)c(C(=O)c2c[nH]c3ncc(Cl)cc23)c1F
Summary of the method: as §1

[3] = compound: CCN(CCCOc1ccc2c(Nc3cc(CC(=O)Nc4cccc(F)c4)[nH]n3)ncnc2c1)CCOP(=O)(O)O [barasertib]
Summary of the method: as §1

[4] = compound: CC[C@@H]1C(=O)N(C)c2cnc(Nc3ccc(C(=O)NC4CCN(C)CC4)cc3OC)nc2N1C1CCCC1
Summary of the method: as §1

[5] = compound: CC[C@@H]1C(=O)N(C)c2cnc(Nc3ccc(C(=O)N[C@H]4CC[C@H](N5CCN(CC6CC6)CC5)CC4)cc3OC)nc2N1C(C)C [volasertib]
Summary of the method: as §1

[6] = compound: CCn1c(C(=O)N(C2CC2)C2CC2)cc2c3c(ncn3C)c(Nc3cc(C)n(C)n3)nc21
Summary of the method: as §1

[7] = compound: CCn1cc(-c2ccnc3[nH]c(-c4cccc(CN(C)C)c4)cc23)c(-c2ccc(NC(=O)N(C)C)cc2)n1
Summary of the method: as §1

[8] = compound: CN1CCC(CNc2ccc3ncc(-c4cccc(OC(F)(F)F)c4)n3n2)CC1
Summary of the method: as §1

[9] = compound: CN1CCN(CCOc2cc(OC3CCOCC3)c3c(Nc4c(Cl)ccc5c4OCO5)ncnc3c2)CC1 [saracatinib]
Summary of the method: as §1

[10] = compound: CN1CCN(c2nc(C3=C(c4c[nH]c5ccccc45)C(=O)NC3=O)c3ccccc3n2)CC1 [sotrastaurin]
Summary of the method: as §1

Measured: log2 fold change

DLST (UniProt P36957)
inactive: [1] 0.033 | [2] 0.001 | [3] -0.003 | [4] 0.05 | [5] 0.016 | [6] 0.017 | [7] -0.01 | [8] 0.049 | [9] -0.009 | [10] 0.013

DNAAF5 (UniProt Q86Y56)
inactive: [1] -0.006 | [2] -0.007 | [3] 0.03 | [4] -0.062 | [5] -0.06 | [6] 0.047 | [7] -0.035 | [8] -0.049 | [9] 0.04 | [10] 0.044

DIAPH3 (UniProt Q9NSV4)
inactive: [1] 0.041 | [2] 0.028 | [3] 0.057 | [4] -0.023 | [5] -0.099 | [6] 0.058 | [7] -0.098 | [8] -0.092 | [9] 0.053 | [10] 0.064

DNAJB14 (UniProt Q8TBM8)
inactive: [1] -0.028 | [2] -0.02 | [3] 0.055 | [4] -0.055 | [5] 0.047 | [6] -0.013 | [7] 0.118 | [8] 0.021 | [9] -0.037 | [10] 0.015

DHX38 (UniProt Q92620)
inactive: [1] 0.018 | [2] 0.025 | [3] -0.02 | [4] 0.051 | [5] -0.022 | [6] -0.011 | [7] -0.014 | [8] 0.019 | [9] -0.008 | [10] 0.011

DOCK10 (UniProt Q96BY6)
active: [7] -0.747
inactive: [1] 0.095 | [2] -0.008 | [3] -0.054 | [4] 0.085 | [5] 0.027 | [6] 0.043 | [8] 0.387 | [9] 0.001 | [10] 0.007

DHX16 (UniProt O60231)
inactive: [1] 0.026 | [2] 0.031 | [3] 0.002 | [4] -0.019 | [5] -0.024 | [6] -0.029 | [7] 0.044 | [8] -0.117 | [9] 0.005 | [10] 0.021

DGUOK (UniProt Q16854)
inactive: [1] 0.056 | [2] 0.024 | [3] 0.021 | [4] 0.019 | [5] -0.006 | [6] -0.012 | [7] -0.102 | [8] 0.021 | [9] -0.02 | [10] -0.011

Random excerpt: 2 records from the list
DHX16 (UniProt O60231)
inactive: [1] 0.026 | [2] 0.031 | [3] 0.002 | [4] -0.019 | [5] -0.024 | [6] -0.029 | [7] 0.044 | [8] -0.117 | [9] 0.005 | [10] 0.021

DGUOK (UniProt Q16854)
inactive: [1] 0.056 | [2] 0.024 | [3] 0.021 | [4] 0.019 | [5] -0.006 | [6] -0.012 | [7] -0.102 | [8] 0.021 | [9] -0.02 | [10] -0.011

Further entries follow:

DHODH (UniProt Q02127)
inactive: [1] -0.011 | [2] -0.029 | [3] -0.032 | [4] 0.014 | [5] 0.015 | [6] -0.01 | [7] -0.056 | [8] 0.064 | [9] -0.003 | [10] 0.029

DNAAF2 (UniProt Q9NVR5)
inactive: [1] 0.051 | [2] 0.005 | [3] -0.016 | [4] 0.038 | [5] 0.018 | [6] -0.022 | [7] 0.008 | [8] 0.022 | [9] -0.021 | [10] -0.015

DIMT1 (UniProt Q9UNQ2)
inactive: [1] -0.035 | [2] 0.016 | [3] 0.011 | [4] -0.043 | [5] 0.002 | [6] 0.021 | [7] 0.054 | [8] -0.012 | [9] -0.002 | [10] -0.012

DGKA (UniProt P23743)
inactive: [1] 0.094 | [2] 0.021 | [3] 0.081 | [4] -0.091 | [5] -0.15 | [6] -0.229 | [7] 0.031 | [8] -0.125 | [9] -0.097

DOCK9 isoform 4 (UniProt Q9BZ29)
inactive: [1] 0.023 | [2] 0.002 | [3] -0.006 | [4] -0.021 | [5] -0.012 | [6] -0.104 | [7] -0.047 | [8] -0.034 | [9] 0.032 | [10] 0.009

DLG3 isoform 2 (UniProt Q92796)
inactive: [1] 0.109 | [2] 0.005 | [3] 0.047 | [4] -0.128 | [5] -0.006 | [6] -0.057 | [7] -0.14 | [8] 0.038 | [9] 0.004 | [10] 0.043

DHX30 isoform 2 (UniProt Q7L2E3)
inactive: [1] 0.01 | [2] 0.016 | [3] -0.039 | [4] 0.014 | [5] -0.024 | [6] 0.015 | [7] 0.017 | [8] -0.029 | [9] 0.001 | [10] 0.016

DHCR7 (UniProt Q9UBM7)
inactive: [1] -0.02 | [2] 0.004 | [3] 0.029 | [4] -0.061 | [5] -0.036 | [6] 0.025 | [7] -0.033 | [8] -0.069 | [9] 0.017 | [10] -0.041

DHX37 (UniProt Q8IY37)
inactive: [1] 0.051 | [2] 0.006 | [3] -0.097 | [4] -0.071 | [5] -0.026 | [6] 0.009 | [7] 0.104 | [8] 0 | [9] 0.067 | [10] 0.054

DHX36 (UniProt Q9H2U1)
inactive: [1] 0.013 | [2] 0.016 | [3] 0.019 | [4] -0.073 | [5] -0.002 | [6] -0.069 | [7] -0.016 | [8] 0.027 | [9] 0.008 | [10] 0.005

DKC1 (UniProt O60832)
inactive: [1] 0.008 | [2] 0.025 | [3] 0.043 | [4] 0.061 | [5] 0.016 | [6] 0 | [7] -0.051 | [8] 0.035 | [9] 0.02 | [10] -0.003

DLG1 isoform 2 (UniProt Q12959)
inactive: [1] 0.025 | [2] -0.024 | [3] 0.007 | [4] -0.019 | [5] 0.001 | [6] -0.002 | [7] 0.017 | [8] -0.042 | [9] -0.007 | [10] -0.006

DNAJC17 (UniProt Q9NVM6)
inactive: [1] -0.076 | [2] -0.008 | [3] -0.038 | [4] 0.032 | [5] 0.013 | [6] 0.064 | [7] -0.022 | [8] 0.017 | [9] -0.025 | [10] 0.047

DLGAP4 (UniProt Q9Y2H0)
inactive: [1] -0.051 | [2] -0.008 | [3] -0.006 | [4] 0.007 | [5] 0.031 | [6] 0.013 | [7] -0.004 | [8] 0.048 | [9] -0.018 | [10] 0

DIS3 (UniProt Q9Y2L1)
inactive: [1] 0.01 | [2] 0.02 | [3] 0.017 | [4] -0.022 | [5] -0.022 | [6] 0.018 | [7] -0.004 | [8] -0.005 | [9] 0.011 | [10] 0.008

DMAC2L (UniProt Q99766)
inactive: [1] 0.002 | [2] 0.026 | [3] 0.065 | [4] 0.075 | [5] -0.028 | [6] 0.021 | [7] -0.017 | [8] 0.053 | [9] 0.058 | [10] -0.012

DHRS3 (UniProt O75911)
inactive: [1] 0.082 | [2] 0.012 | [3] -0.01 | [4] -0.03 | [5] 0.033 | [6] -0.041 | [7] -0.061 | [8] 0.034 | [9] 0.029 | [10] 0.013

DMTN (UniProt Q08495)
inactive: [1] 0.041 | [2] 0.022 | [3] -0.016 | [4] 0.077 | [5] 0.009 | [6] -0.021 | [7] 0.042 | [8] 0.003 | [9] 0.003 | [10] 0.021

DNAJC9 (UniProt Q8WXX5)
inactive: [1] -0.027 | [2] 0.002 | [3] -0.047 | [4] 0.007 | [5] 0.012 | [6] -0.011 | [7] 0.034 | [8] -0.027 | [9] 0.018 | [10] -0.016

DNAJC12 (UniProt Q9UKB3)
inactive: [1] -0.021 | [2] 0.027 | [3] 0.042 | [4] 0.132 | [5] 0.007 | [6] 0.013 | [7] -0.006 | [8] 0.035 | [9] 0.044 | [10] -0.052

DOCK8 (UniProt Q8NF50)
inactive: [1] 0.005 | [2] 0.013 | [3] 0.034 | [4] -0.075 | [5] -0.065 | [6] 0.04 | [7] 0 | [8] -0.033 | [9] 0.012 | [10] 0.023

DMXL1 (UniProt Q9Y485)
inactive: [1] 0.024 | [2] 0.028 | [3] -0.005 | [4] 0.015 | [5] -0.06 | [6] 0.026 | [7] -0.017 | [8] -0.004 | [9] 0.002 | [10] 0.023
